The target in this test is recombinant uPAR (UniProt Q03405). The test is described as follows: far-Western, overlay or dot blot; ligand blot: 2 µg of recombinant proteins electrophoresed on SDS-PAGE, blotted and probed with ferritin; both purified.

No constants are given. Whether binding was seen depends on the method and setting.

As to “spleen ferritin (from UniProt P02794 1-183; P02792 1-175) (complex)”, the binding entry was “no binding”.

The record behind these values is PMC3388046.
